# Test results reported in the supplement of paper PMC8728848.
# Some of the results follow.
# B1: AntigenI/IIC123 (Streptococcus mutans), C9E3B4 (protein)
# chain: MASMTGGQQMGRIHFHYFKLAVQPQVNKEIRNNNDINIDRTLVAKQSVVKFQLKTADLPAGRDETTSFVLVDPLPSGYQFNPEATKAASPGFDVTYDNATNTVTFKATAATLATFNADLTKSVATIYPTVVGQVLNDGATYKNNFTLTVNDAYGIKSNVVRVTTPGKPNDPDNPNNNYIKPTKVNKNENGVVIDGKTVLAGSTNYYELTWDLDQYKNDRSSADTIQKGFYYVDDYPEEALELRQDLVKITDANGNEVTGVSVDNYTNLEAAPQEIRDVLSKAGIRPKGAFQIFRADNPREFYDTYVKTGIDLKIVSPMVVKKQMGQTGGSYENQAYQIDFGNGYASNIIINNVPKINPKKDVTLTLDPADTNNVDGQTIPLNTVFNYRLIGGIIPADHSEELFEYNFYDDYDQTGDHYTGQYKVFAKVDITFKDGSIIKSGAELTQYTTAEVDTAKGAITIKFKEAFLRSVSIDSAFQAESYIQMKRIAVGTFENTYINTVNGVTYSSLEHHHHHH
# Legend:
# Assay in all cases: glycan array binding signal (z-score within array); higher = stronger binding
# Details in all cases: glycan notation: IUPAC condensed, linker removed
# [1] = molecular target: Neu5Ac(a2-3)Gal(b1-4)GlcNAc(b1-2)[Neu5Ac(a2-3)Gal(b1-4)GlcNAc(b1-4)]Man(a1-3)[GlcNAc(b1-4)][Neu5Ac(a2-3)Gal(b1-4)GlcNAc(b1-4)Man(a1-6)]Man(b1-4)GlcNAc(b1-4)GlcNAc
# In short: (§1)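 Columns mapping to the same glycan were averaged after glycan names were converted to IUPAC-condensed notation. The data come from 3228 arrays in the Consortium for Functional Glycomics database, limited to those with an available protein sequence. Binding is reported as a within-array Z-score averaged across arrays of one protein sequence and across linkers.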
# [2] = molecular target: Neu5Ac(a2-3)Gal(b1-4)GlcNAc(b1-2)[Neu5Ac(a2-3)Gal(b1-4)GlcNAc(b1-6)]Man(a1-6)[Neu5Ac(a2-3)Gal(b1-4)GlcNAc(b1-2)Man(a1-3)]Man(b1-4)GlcNAc(b1-4)GlcNAc
# In short: as §1
# [3] = molecular target: Neu5Ac(a2-3)Gal(b1-4)GlcNAc(b1-2)[Neu5Ac(a2-3)Gal(b1-4)GlcNAc(b1-6)]Man(a1-6)[Neu5Ac(a2-3)Gal(b1-4)GlcNAc(b1-2)Man(a1-3)][GlcNAc(b1-4)]Man(b1-4)GlcNAc(b1-4)GlcNAc
# In short: as §1
# [4] = molecular target: Neu5Ac(a2-3)Gal(b1-4)GlcNAc(b1-3)Gal
# In short: as §1
# [5] = molecular target: Neu5Ac(a2-3)Gal(b1-4)GlcNAc(b1-3)Gal(b1-3)GlcNAc
# In short: as §1
# [6] = molecular target: Neu5Ac(a2-3)Gal(b1-4)GlcNAc(b1-3)Gal(b1-4)GlcNAc
# In short: as §1
# [7] = molecular target: Neu5Ac(a2-3)Gal(b1-4)GlcNAc(b1-3)Gal(b1-4)GlcNAc(b1-2)Man(a1-3)[Neu5Ac(a2-3)Gal(b1-4)GlcNAc(b1-3)Gal(b1-4)GlcNAc(b1-2)Man(a1-6)]Man(b1-4)GlcNAc(b1-4)GlcNAc
# In short: as §1
# [8] = molecular target: Neu5Ac(a2-3)Gal(b1-4)GlcNAc(b1-3)Gal(b1-4)GlcNAc(b1-3)Gal(b1-4)GlcNAc
# In short: as §1
# [9] = molecular target: Neu5Ac(a2-3)Gal(b1-4)GlcNAc(b1-3)Gal(b1-4)GlcNAc(b1-3)Gal(b1-4)GlcNAc(b1-2)Man(a1-3)[Neu5Ac(a2-3)Gal(b1-4)GlcNAc(b1-3)Gal(b1-4)GlcNAc(b1-3)Gal(b1-4)GlcNAc(b1-2)Man(a1-6)]GalNAc
# In short: as §1
# [10] = molecular target: Neu5Ac(a2-3)Gal(b1-4)GlcNAc(b1-3)Gal(b1-4)GlcNAc(b1-3)GalNAc
# In short: as §1
# [11] = molecular target: Neu5Ac(a2-3)Gal(b1-4)GlcNAc(b1-3)Gal(b1-4)GlcNAc(b1-3)[Neu5Ac(a2-3)Gal(b1-4)GlcNAc(b1-3)Gal(b1-4)GlcNAc(b1-6)]GalNAc
# In short: as §1
# [12] = molecular target: Neu5Ac(a2-3)Gal(b1-4)GlcNAc(b1-3)Gal(b1-4)GlcNAc(b1-6)[Gal(b1-3)]GalNAc
# In short: as §1
# [13] = molecular target: Neu5Ac(a2-3)Gal(b1-4)GlcNAc(b1-3)Gal(b1-4)[Fuc(a1-3)]GlcNAc
# In short: as §1
# [14] = molecular target: Neu5Ac(a2-3)Gal(b1-4)GlcNAc(b1-3)GalNAc
# In short: as §1
# [15] = molecular target: Neu5Ac(a2-3)Gal(b1-4)GlcNAc(b1-3)[Neu5Ac(a2-3)Gal(b1-4)GlcNAc(b1-6)]GalNAc
# In short: as §1
# [16] = molecular target: Neu5Ac(a2-3)Gal(b1-4)GlcNAc(b1-6)GalNAc
# In short: as §1
# [17] = molecular target: Neu5Ac(a2-3)Gal(b1-4)GlcNAc(b1-6)[Gal(b1-3)]GalNAc
# In short: as §1
# [18] = molecular target: Neu5Ac(a2-3)Gal(b1-4)GlcNAc(b1-6)[Neu5Ac(a2-3)Gal(b1-3)]GalNAc
# In short: as §1
# [19] = molecular target: Neu5Ac(a2-3)Gal(b1-4)GlcNAc6S
# In short: as §1
# [20] = molecular target: Neu5Ac(a2-3)Gal(b1-4)[Fuc(a1-3)]GlcNAc
# In short: as §1
# [21] = molecular target: Neu5Ac(a2-3)Gal(b1-4)[Fuc(a1-3)]GlcNAc(b1-2)Man
# In short: as §1
# [22] = molecular target: Neu5Ac(a2-3)Gal(b1-4)[Fuc(a1-3)]GlcNAc(b1-3)Gal
# In short: as §1
# [23] = molecular target: Neu5Ac(a2-3)Gal(b1-4)[Fuc(a1-3)]GlcNAc(b1-3)Gal(b1-4)GlcNAc
# In short: as §1
# [24] = molecular target: Neu5Ac(a2-3)Gal(b1-4)[Fuc(a1-3)]GlcNAc(b1-3)Gal(b1-4)[Fuc(a1-3)]GlcNAc(b1-3)Gal(b1-4)[Fuc(a1-3)]GlcNAc
# In short: as §1
# [25] = molecular target: Neu5Ac(a2-3)Gal(b1-4)[Fuc(a1-3)]GlcNAc(b1-3)GalNAc
# In short: as §1
# [26] = molecular target: Neu5Ac(a2-3)Gal(b1-4)[Fuc(a1-3)]GlcNAc(b1-6)[Gal(b1-3)]GalNAc
# In short: as §1
# [27] = molecular target: Neu5Ac(a2-3)Gal(b1-4)[Fuc(a1-3)]GlcNAc(b1-6)[Neu5Ac(a2-3)Gal(b1-3)]GalNAc
# In short: as §1
# [28] = molecular target: Neu5Ac(a2-3)Gal(b1-4)[Fuc(a1-3)]GlcNAc6S
# In short: as §1
# [29] = molecular target: Neu5Ac(a2-3)Gal6S(b1-4)GlcNAc
# In short: as §1
# [30] = molecular target: Neu5Ac(a2-3)Gal6S(b1-4)[Fuc(a1-3)]GlcNAc
# In short: as §1
# Neu5Ac(a2-3)GalNAc = molecular target: Neu5Ac(a2-3)GalNAc
# In short: as §1
# [31] = molecular target: Neu5Ac(a2-3)GalNAc(b1-4)GlcNAc
# In short: as §1
# [32] = molecular target: Neu5Ac(a2-3)[GalNAc(b1-4)]Gal(b1-4)Glc
# In short: as §1
# [33] = molecular target: Neu5Ac(a2-3)[GalNAc(b1-4)]Gal(b1-4)GlcNAc
# In short: as §1
# [34] = molecular target: Neu5Ac(a2-3)[GalNAc(b1-4)]Gal(b1-4)GlcNAc(b1-3)GalNAc
# In short: as §1
# [35] = molecular target: Neu5Ac(a2-3)[Neu5Ac(a2-6)]GalNAc
# In short: as §1
# Neu5Ac(a2-6)Gal = molecular target: Neu5Ac(a2-6)Gal
# In short: as §1
# [36] = molecular target: Neu5Ac(a2-6)Gal(b1-3)GlcNAc(b1-3)[Gal(b1-4)GlcNAc(b1-6)]Gal(b1-4)Glc
# In short: as §1
# Neu5Ac(a2-6)Gal(b1-4)Glc = molecular target: Neu5Ac(a2-6)Gal(b1-4)Glc
# In short: as §1
# [37] = molecular target: Neu5Ac(a2-6)Gal(b1-4)GlcNAc
# In short: as §1
# [38] = molecular target: Neu5Ac(a2-6)Gal(b1-4)GlcNAc(b1-2)Man
# In short: as §1
# [39] = molecular target: Neu5Ac(a2-6)Gal(b1-4)GlcNAc(b1-2)Man(a1-3)Man(b1-4)GlcNAc(b1-4)GlcNAc
# In short: as §1
# [40] = molecular target: Neu5Ac(a2-6)Gal(b1-4)GlcNAc(b1-2)Man(a1-3)[Gal(b1-4)GlcNAc(b1-2)Man(a1-6)]Man(b1-4)GlcNAc(b1-4)GlcNAc
# In short: as §1
# [41] = molecular target: Neu5Ac(a2-6)Gal(b1-4)GlcNAc(b1-2)Man(a1-3)[GlcNAc(b1-2)Man(a1-6)]Man(b1-4)GlcNAc(b1-4)GlcNAc
# In short: as §1
# [42] = molecular target: Neu5Ac(a2-6)Gal(b1-4)GlcNAc(b1-2)Man(a1-3)[GlcNAc(b1-4)][Neu5Ac(a2-6)Gal(b1-4)GlcNAc(b1-2)Man(a1-6)]Man(b1-4)GlcNAc(b1-4)GlcNAc
# In short: as §1
binder,measurement,setting,value
B1,glycan array binding signal (z-score),[1],-0.575
same,glycan array binding signal (z-score),[2],0.84
same,glycan array binding signal (z-score),[3],-1.1
same,glycan array binding signal (z-score),[4],-0.747
same,glycan array binding signal (z-score),[5],-0.354
same,glycan array binding signal (z-score),[6],0.843
same,glycan array binding signal (z-score),[7],-0.924
same,glycan array binding signal (z-score),[8],-0.469
same,glycan array binding signal (z-score),[9],2.55
same,glycan array binding signal (z-score),[10],-0.69
same,glycan array binding signal (z-score),[11],-0.714
same,glycan array binding signal (z-score),[12],-1.04
same,glycan array binding signal (z-score),[13],-0.47
same,glycan array binding signal (z-score),[14],-0.658
same,glycan array binding signal (z-score),[15],1.08
same,glycan array binding signal (z-score),[16],-0.138
same,glycan array binding signal (z-score),[17],-0.803
same,glycan array binding signal (z-score),[18],-0.22
same,glycan array binding signal (z-score),[19],-0.553
same,glycan array binding signal (z-score),[20],-0.482
same,glycan array binding signal (z-score),[21],-0.89
same,glycan array binding signal (z-score),[22],-0.18
same,glycan array binding signal (z-score),[23],0.457
same,glycan array binding signal (z-score),[24],-0.857
same,glycan array binding signal (z-score),[25],2.69
same,glycan array binding signal (z-score),[26],2.24
same,glycan array binding signal (z-score),[27],0.678
same,glycan array binding signal (z-score),[28],-0.3
same,glycan array binding signal (z-score),[29],-0.218
same,glycan array binding signal (z-score),[30],-1.48
same,glycan array binding signal (z-score),Neu5Ac(a2-3)GalNAc,-0.706
same,glycan array binding signal (z-score),[31],0.443
same,glycan array binding signal (z-score),[32],-0.218
same,glycan array binding signal (z-score),[33],0.527
same,glycan array binding signal (z-score),[34],1.72
same,glycan array binding signal (z-score),[35],-0.734
same,glycan array binding signal (z-score),Neu5Ac(a2-6)Gal,4.55
same,glycan array binding signal (z-score),[36],-0.008
same,glycan array binding signal (z-score),Neu5Ac(a2-6)Gal(b1-4)Glc,-0.07
same,glycan array binding signal (z-score),[37],-0.728
same,glycan array binding signal (z-score),[38],-1.06
same,glycan array binding signal (z-score),[39],-0.226
same,glycan array binding signal (z-score),[40],-0.482
same,glycan array binding signal (z-score),[41],1.46
same,glycan array binding signal (z-score),[42],-0.868

# 2 records drawn at random from the list so far:
binder,measurement,setting,value
B1,glycan array binding signal (z-score),[42],-0.868
same,glycan array binding signal (z-score),[41],1.46
